Laboratory results reported in PMC6691060.
Results are given in words; binding and its absence hold for the method and conditions named. Binding seen in cells or lysates may run through a third protein.

By UniProt entry, the sequences of proteins in these tests, tags left out.
UniProt Q04206: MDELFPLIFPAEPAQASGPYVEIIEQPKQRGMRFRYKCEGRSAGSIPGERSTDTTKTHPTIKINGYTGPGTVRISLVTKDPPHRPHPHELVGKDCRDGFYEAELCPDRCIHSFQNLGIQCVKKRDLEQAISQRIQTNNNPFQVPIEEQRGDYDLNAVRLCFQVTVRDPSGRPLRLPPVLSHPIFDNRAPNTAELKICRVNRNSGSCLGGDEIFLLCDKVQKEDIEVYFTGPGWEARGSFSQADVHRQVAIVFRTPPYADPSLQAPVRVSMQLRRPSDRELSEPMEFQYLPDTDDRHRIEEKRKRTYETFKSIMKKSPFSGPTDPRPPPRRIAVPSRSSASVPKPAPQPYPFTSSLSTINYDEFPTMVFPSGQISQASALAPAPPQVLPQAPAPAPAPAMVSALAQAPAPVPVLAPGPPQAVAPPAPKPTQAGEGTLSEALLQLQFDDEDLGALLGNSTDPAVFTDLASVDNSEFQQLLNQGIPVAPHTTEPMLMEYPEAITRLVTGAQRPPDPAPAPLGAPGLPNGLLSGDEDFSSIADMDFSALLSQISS

Target: NF-κB p65 (UniProt Q04206)
Assay: co-IP; lysate supernatants immunoprecipitated with indicated antibodies overnight, Protein A/G Plus-agarose beads 4 h, Western blotting; which protein was precipitated and which cells were lysed are not told

binding: no binding
B1: Transmembrane protein 16A (TMEM16A) (protein, UniProt Q5XXA6 1-986)
chain: MRVNEKYSTLPAEDRSVHIINICAIEDIGYLPSEGTLLNSLSVDPDAECKYGLYFRDGRRKVDYILVYHHKRPSGNRTLVRRVQHSDTPSGARSVKQDHPLPGKGASLDAGSGEPPMDYHEDDKRFRREEYEGNLLEAGLELERDEDTKIHGVGFVKIHAPWNVLCREAEFLKLKMPTKKMYHINETRGLLKKINSVLQKITDPIQPKVAEHRPQTMKRLSYPFSREKQHLFDLSDKDSFFDSKTRSTIVYEILKRTTCTKAKYSMGITSLLANGVYAAAYPLHDGDYNGENVEFNDRKLLYEEWARYGVFYKYQPIDLVRKYFGEKIGLYFAWLGVYTQMLIPASIVGIIVFLYGCATMDENIPSMEMCDQRHNITMCPLCDKTCSYWKMSSACATARASHLFDNPATVFFSVFMALWAATFMEHWKRKQMRLNYRWDLTGFEEEEEAVKDHPRAEYEARVLEKSLKKESRNKEKRRHIPEESTNKWKQRVKTAMAGVKLTDKVKLTWRDRFPAYLTNLVSIIFMIAVTFAIVLGVIIYRISMAAALAMNSSPSVRSNIRVTVTATAVIINLVVIILLDEVYGCIARWLTKIEVPKTEKSFEERLIFKAFLLKFVNSYTPIFYVAFFKGRFVGRPGDYVYIFRSFRMEECAPGGCLMELCIQLSIIMLGKQLIQNNLFEIGIPKMKKLIRYLKLKQQSPPDHEECVKRKQRYEVDYNLEPFAGLTPEYMEMIIQFGFVTLFVASFPLAPLFALLNNIIEIRLDAKKFVTELRRPVAVRAKDIGIWYNILRGIGKLAVIINAFVISFTSDFIPRLVYLYMYSKNGTMHGFVNHTLSSFNVSDFQNGTAPNDPLDLGYEVQICRYKDYREPPWSENKYDISKDFWAVLAARLAFVIVFQNLVMFMSDFVDWVIPDIPKDISQQIHKEKVLMVELFMREEQDKQQLLETWMEKERQKDEPPCNHHNTKACPDSLGSPAPSHAYHGGVL
